Test results from patent US20160137728A1.
Results are given in words; binding and its absence hold for the method and conditions named. Some entries that bind do so weakly or less than the wild type.

Protein sequences, listed by entry. Tags and fused reporters are not part of them. Lines headed by an entry give the natural chain unless they say otherwise; changes in a name come on top.
UniProt P05019: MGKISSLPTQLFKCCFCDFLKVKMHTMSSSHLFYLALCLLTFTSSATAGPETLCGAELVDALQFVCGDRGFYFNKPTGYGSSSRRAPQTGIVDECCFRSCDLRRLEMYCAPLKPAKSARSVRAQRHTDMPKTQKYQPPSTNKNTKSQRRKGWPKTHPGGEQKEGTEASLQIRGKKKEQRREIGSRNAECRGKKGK

Tests used:
[1] = target: human insulin-like growth factor-1 (mature, recombinant native IGF-1, Peprotech Cat.#100-11) (human) (UniProt P05019); experiment: ELISA, clone culture supernatant
SEQ ID NO 50 (human) = experiment: CelluSpots peptide array, chemiluminescence
SEQ ID NO 49 (human) = experiment: CelluSpots peptide array, chemiluminescence
SEQ ID NO 44 (human) = experiment: CelluSpots peptide array, chemiluminescence
SEQ ID NO 45 (human) = experiment: CelluSpots peptide array, chemiluminescence
SEQ ID NO 47 (human) = experiment: CelluSpots peptide array, chemiluminescence
SEQ ID NO 46 (human) = experiment: CelluSpots peptide array, chemiluminescence
SEQ ID NO 48 (human) = experiment: CelluSpots peptide array, chemiluminescence
SEQ ID NO 43 (human) = experiment: CelluSpots peptide array, chemiluminescence

Measured: binding

B1: MAb<h-IGF-1>M-11.09.15 (antibody, V domains shown)
VH: QVQLQQSGAELVRPGSSVKISCKASGYAFSNLWMNWVKQRPGQGLEWIGQIYPGDGDTNYYGDFKGKATLTADSSSSTAYMQLSRLTSEDSAVYFCARIGYYGMDYWGQGTSVTVSS
VL: DVVLTQTPLSLPVNIGDEASISCKSTKSLLSSDGLTYLDWYLQKPGQSPQVLIYLVSNRFSGVPDRFSGSGSGTDFTLKISRVEAEDLGVYYCFQSNYLPTFGAGTKLELK
binds: [1] | SEQ ID NO 50 (human) | SEQ ID NO 49 (human) | SEQ ID NO 44 (human) | SEQ ID NO 45 (human) | SEQ ID NO 47 (human) | SEQ ID NO 46 (human) | SEQ ID NO 48 (human) | SEQ ID NO 43 (human)
